Experimental data from patent US20120088818.

Amino acid sequences for entries named in this document (tags omitted). Residues count along the entry.
UniProt P22756, 31-949: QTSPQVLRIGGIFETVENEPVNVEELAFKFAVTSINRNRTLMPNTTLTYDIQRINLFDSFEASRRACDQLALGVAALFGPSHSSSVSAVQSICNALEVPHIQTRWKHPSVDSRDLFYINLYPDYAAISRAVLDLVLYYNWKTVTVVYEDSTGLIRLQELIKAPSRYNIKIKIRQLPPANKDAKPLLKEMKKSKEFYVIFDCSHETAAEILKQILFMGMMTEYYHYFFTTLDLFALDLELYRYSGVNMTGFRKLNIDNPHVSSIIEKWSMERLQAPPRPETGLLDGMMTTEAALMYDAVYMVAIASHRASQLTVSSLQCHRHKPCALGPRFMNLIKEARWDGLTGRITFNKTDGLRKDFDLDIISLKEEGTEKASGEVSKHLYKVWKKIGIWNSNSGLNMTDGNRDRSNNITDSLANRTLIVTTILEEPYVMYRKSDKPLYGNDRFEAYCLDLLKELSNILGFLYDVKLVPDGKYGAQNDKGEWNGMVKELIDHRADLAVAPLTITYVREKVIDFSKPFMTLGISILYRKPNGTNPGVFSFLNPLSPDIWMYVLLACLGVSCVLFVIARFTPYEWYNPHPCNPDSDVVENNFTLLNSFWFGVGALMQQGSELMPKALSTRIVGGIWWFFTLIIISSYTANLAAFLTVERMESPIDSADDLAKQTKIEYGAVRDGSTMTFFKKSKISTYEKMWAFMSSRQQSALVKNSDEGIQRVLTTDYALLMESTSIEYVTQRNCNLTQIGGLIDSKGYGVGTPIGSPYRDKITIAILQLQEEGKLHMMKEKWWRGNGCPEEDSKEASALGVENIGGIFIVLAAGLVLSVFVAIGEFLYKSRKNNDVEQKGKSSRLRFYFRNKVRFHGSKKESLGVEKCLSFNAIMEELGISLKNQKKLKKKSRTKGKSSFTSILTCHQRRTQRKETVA
UniProt P19492, 23-888: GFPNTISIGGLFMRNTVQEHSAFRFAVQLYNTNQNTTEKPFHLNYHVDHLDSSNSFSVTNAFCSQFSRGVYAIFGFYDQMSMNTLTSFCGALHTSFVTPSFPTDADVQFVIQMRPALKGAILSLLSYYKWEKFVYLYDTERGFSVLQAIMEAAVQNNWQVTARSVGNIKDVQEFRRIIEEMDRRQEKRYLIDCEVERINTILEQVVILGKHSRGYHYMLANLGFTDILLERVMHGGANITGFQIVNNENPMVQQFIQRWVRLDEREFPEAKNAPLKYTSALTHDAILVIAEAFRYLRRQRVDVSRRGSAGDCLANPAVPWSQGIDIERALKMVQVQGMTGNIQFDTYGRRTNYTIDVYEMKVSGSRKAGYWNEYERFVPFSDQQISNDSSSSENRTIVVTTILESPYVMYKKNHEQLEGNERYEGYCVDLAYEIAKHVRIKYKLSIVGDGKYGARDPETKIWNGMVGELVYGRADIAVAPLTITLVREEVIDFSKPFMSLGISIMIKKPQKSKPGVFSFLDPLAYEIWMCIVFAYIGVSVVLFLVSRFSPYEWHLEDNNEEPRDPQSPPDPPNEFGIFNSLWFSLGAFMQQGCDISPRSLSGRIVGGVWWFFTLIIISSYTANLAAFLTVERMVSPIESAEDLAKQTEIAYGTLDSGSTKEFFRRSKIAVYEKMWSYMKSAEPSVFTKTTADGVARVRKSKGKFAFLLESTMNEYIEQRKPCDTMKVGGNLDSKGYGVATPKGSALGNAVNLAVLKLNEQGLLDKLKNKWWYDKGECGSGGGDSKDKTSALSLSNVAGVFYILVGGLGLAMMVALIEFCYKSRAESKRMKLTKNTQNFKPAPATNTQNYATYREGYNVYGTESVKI
UniProt P19490, 19-907: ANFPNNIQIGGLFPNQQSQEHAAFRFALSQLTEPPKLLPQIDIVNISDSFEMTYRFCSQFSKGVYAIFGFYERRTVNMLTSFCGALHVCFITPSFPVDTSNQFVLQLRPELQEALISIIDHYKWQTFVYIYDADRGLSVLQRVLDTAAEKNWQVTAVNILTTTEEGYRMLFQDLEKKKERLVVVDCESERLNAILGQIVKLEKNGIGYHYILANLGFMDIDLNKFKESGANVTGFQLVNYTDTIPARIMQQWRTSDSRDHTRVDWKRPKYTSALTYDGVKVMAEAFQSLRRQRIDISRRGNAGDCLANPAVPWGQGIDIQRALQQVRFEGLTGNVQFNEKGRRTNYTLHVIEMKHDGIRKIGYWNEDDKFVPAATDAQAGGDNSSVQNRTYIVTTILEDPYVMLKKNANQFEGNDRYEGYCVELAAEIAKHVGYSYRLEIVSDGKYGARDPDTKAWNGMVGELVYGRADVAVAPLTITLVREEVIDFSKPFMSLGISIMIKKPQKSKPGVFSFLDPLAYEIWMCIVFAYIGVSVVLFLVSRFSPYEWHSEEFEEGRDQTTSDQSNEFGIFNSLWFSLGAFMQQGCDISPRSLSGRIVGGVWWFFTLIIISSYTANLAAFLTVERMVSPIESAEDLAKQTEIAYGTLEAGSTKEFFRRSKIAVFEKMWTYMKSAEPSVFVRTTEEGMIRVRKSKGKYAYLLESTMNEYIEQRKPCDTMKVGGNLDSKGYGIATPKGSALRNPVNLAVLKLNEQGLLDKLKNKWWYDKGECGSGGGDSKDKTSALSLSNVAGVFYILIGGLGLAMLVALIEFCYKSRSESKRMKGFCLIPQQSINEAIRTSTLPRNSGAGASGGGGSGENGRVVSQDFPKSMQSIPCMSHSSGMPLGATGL
UniProt P19493, 21-902: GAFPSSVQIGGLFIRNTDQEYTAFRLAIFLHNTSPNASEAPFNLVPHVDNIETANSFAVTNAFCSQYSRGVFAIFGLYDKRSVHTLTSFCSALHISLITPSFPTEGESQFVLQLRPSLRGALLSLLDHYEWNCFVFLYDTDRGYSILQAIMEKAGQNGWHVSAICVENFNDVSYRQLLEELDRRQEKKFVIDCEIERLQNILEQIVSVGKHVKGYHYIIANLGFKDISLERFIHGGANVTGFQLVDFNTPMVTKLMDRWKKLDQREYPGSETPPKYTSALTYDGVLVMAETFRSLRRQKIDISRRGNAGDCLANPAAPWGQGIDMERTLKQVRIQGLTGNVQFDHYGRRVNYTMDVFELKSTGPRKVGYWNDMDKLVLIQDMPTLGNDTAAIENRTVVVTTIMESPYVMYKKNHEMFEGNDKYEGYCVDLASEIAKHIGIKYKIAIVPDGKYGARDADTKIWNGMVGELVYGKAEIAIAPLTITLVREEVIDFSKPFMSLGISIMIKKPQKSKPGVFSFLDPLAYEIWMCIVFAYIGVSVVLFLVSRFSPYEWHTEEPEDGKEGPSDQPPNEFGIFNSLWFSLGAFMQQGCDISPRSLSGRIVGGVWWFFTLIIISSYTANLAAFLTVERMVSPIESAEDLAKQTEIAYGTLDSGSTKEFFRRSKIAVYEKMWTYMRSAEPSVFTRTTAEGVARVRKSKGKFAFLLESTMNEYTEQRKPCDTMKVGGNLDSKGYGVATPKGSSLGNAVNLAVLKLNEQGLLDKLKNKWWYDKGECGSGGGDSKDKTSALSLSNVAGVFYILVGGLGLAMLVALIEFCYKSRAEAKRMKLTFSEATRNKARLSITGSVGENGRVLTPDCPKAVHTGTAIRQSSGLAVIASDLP
UniProt P42260, 32-908: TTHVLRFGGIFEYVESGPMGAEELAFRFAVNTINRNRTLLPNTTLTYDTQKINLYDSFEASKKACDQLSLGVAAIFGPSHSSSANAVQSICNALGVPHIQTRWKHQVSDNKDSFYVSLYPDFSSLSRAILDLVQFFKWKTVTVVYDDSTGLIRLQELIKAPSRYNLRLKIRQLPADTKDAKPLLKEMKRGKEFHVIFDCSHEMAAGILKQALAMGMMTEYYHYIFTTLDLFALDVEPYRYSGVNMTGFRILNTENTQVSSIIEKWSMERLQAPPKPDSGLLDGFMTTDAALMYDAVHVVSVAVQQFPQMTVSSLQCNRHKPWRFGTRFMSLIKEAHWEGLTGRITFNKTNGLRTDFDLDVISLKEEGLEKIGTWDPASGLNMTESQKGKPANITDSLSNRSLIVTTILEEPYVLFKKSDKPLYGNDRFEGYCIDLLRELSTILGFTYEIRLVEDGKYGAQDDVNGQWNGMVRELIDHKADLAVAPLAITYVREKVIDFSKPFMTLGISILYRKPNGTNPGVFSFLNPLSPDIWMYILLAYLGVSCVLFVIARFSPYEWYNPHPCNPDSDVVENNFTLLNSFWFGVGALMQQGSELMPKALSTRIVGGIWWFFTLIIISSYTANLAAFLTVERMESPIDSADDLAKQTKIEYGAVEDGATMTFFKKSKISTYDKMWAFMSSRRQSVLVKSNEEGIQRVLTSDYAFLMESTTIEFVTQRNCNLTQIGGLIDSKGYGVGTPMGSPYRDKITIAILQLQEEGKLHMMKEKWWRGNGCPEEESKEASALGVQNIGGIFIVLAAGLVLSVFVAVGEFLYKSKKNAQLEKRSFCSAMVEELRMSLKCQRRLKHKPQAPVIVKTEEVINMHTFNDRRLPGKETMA

What was measured:
Assay in all cases: activity in cells
GluK1 kainate receptor = GluK1 kainate receptor (UniProt P22756); conditions: no inhibition of whole-cell current; protein on the cell surface; variant of AG1407 (full length, 100 nt); dose not given here
[1] = biological target: GluA3 AMPA receptor (Rattus norvegicus) (UniProt P19492); conditions: whole-cell current, open-channel conformation inhibited; protein on the cell surface; variant of AG1407 (full length, 100 nt); dose not given here
[2] = biological target: GluA1 AMPA receptor (Rattus norvegicus) (UniProt P19490); conditions: whole-cell current, open-channel conformation inhibited; protein on the cell surface; variant of AG1407 (full length, 100 nt); dose not given here
GluA4 AMPA receptor = GluA4 AMPA receptor (UniProt P19493); conditions: whole-cell current, open-channel conformation inhibited; protein on the cell surface; variant of AG1407 (full length, 100 nt); dose not given here
[3] = biological target: GluK2 kainate receptor (Rattus norvegicus) (UniProt P42260); conditions: no inhibition of whole-cell current; protein on the cell surface; variant of AG1407 (full length, 100 nt); dose not given here
[4] = system: GluN1/GluN2A NMDA receptor; conditions: no inhibition of whole-cell current; 2 uM glycine; protein on the cell surface; variant of AG1407 (full length, 100 nt)

Measured: functional effect of the aptamer

GGGAGAUUGUGAAGCGUAGGCUCGAGUUUGUCCCGCGAGCCAAAGAUUCCAGACCC [AG56]
active: [1] | [2] | GluA4 AMPA receptor
not active: all other assays above

For part of these data: Negatives hold for the conditions tested.
